According to PubChem BioAssay AID2685 (National Center for Advancing Translational Sciences (NCATS), 2010):
The whole screen tested about 320,000 compounds, of which about 2,100 (0.66%) were called active. The inconclusive results got no clear call from the source; some entries with a clear call stand among them for comparison. Calls follow the shape of the dose curve; as a rule, active = well fitted inhibition curve with a large enough effect in the signal ratio, with a control signal flat (not every such curve was filed as active); inconclusive = small, poorly fitted or top-dose-only effect, or effect the other way, or a change in a side signal; inactive = flat fitted curve, though single readings scatter; the % refers to the signal ratio. Potencies beside an inconclusive call are fits to weak or partial responses and may not hold up.

experiment: qHTS Assay for Lipid Storage Modulators in Drosophila S3 Cells; details: BODIPY lipid droplet fluorescence, 18-24 h, cells fed with added oleic acid; lipid storage change, negative = inhibition: at 46.1 µM (top of the series) unless noted
In short: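 Drosophila S3 cells loaded with oleic acid (400 uM, as added) and compounds at several concentrations; lipid droplets imaged by 488-nm laser-scanning cytometry, 500–530 nm intensity and object ratio to cell channel. Percent activity normalized to 20 uM Triacsin C.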
% is scaled to controls: 0 for no effect and ±100 for the full control effect; potency is read from the fitted curve at half-maximal effect.

Structure (SMILES) | lipid storage change, negative = inhibition | Potency | outcome
CNC(=O)COC(=O)c1ccc(-c2nc3ccccc3s2)s1 | inconclusive: 7.81% |  | 
NC(=O)C1(c2ccccc2)OC1c1ccccc1 (stereo not given) |  | inconclusive: 29.1 µM [falling, partial curve, poor fit] | 
CCOc1ccc(NC(=O)C(=O)NCCCn2ccnc2)cc1 | inconclusive: 52.2% |  | 
CCN(CC)S(=O)(=O)c1ccc(C2=NOC3(C2)N(C)c2ccccc2C3(C)C)cc1 (stereo not given) | inconclusive: -58.8% |  | 
COCCn1c(C)cc(C2=NNC(=Nc3ccc(F)cc3)SC2)c1C |  | inconclusive: 29.1 µM [rising, single point] | 
CN1C(=O)c2ccccc2N(C)C1c1ccc2c(c1)OCO2 (stereo not given) | inconclusive: 9% |  | 
O=C(OCCCOC(=O)c1ccc([N+](=O)[O-])o1)c1ccc([N+](=O)[O-])o1 | inconclusive: -0.0252% |  | 
O=C(NC(CC(=O)N1CCN(c2ccccc2O)CC1)c1ccccc1)c1ccccc1Cl (stereo not given) | inconclusive: -18.7% |  | 
CC1=C(C(=O)OCCOC(C)C)C(c2cccnc2)C2=C(CCCC2=O)N1 (stereo not given) |  | inconclusive: 0.411 µM [activator, full curve, poor fit] | 
COc1ccc(N2CCN(C(=O)Nc3ccccc3C)CC2)cc1 | inconclusive: 24.1% |  | 
COc1ccc(-n2nc(C(=O)Nc3ccc4c(c3)OCO4)c3ccccc3c2=O)cc1 |  | inconclusive: 0.82 µM [activator, full curve] | 
C=CCC(CC=C)(C(=O)O)c1ccccc1 | inconclusive: -68.7% |  | 
CCN(C(=O)CCNC(=O)Cn1cnc2ccccc2c1=O)c1ccccc1F |  |  | inactive [at 46.1 µM]
O=S(=O)(/N=C(/Nc1cccc2ccccc12)c1ccccc1)c1ccc(Br)cc1 |  | inconclusive: 29.1 µM [falling, single point] | 
Cc1nc2ccc(S(=O)(=O)NC(CC(C)C)C(=O)O)cc2s1 (stereo not given) | inconclusive: 144% |  | 
Cc1cccc(C)c1-n1c(C)nn(-c2ncc(C(F)(F)F)cc2Cl)c1=O | inconclusive: 3.65% [cytotoxic] |  | 
CCOC(=S)SCC(=O)Nc1nc(-c2ccc(Br)cc2)cs1 | inconclusive: -94.3% |  | 
CC(=O)c1cn(CC(=O)Nc2c(C)cccc2C)c2ccccc12 |  | inconclusive: 16.4 µM [falling, single point] | 
O=C1CNC(=O)/C(=C/c2ccco2)N1 | inconclusive: -5.28% |  | 
O=C(Nc1ccc(N2CCCCC2)cc1)c1ccc([N+](=O)[O-])o1 |  | inconclusive: 18.4 µM [falling, partial curve, poor fit] | 
CN(C)S(=O)(=O)c1cccc(NC(=O)C(c2ccccc2)c2ccccc2)c1 |  | inconclusive: 6.51 µM [activator, single point] | 
Cc1ccc(CN(Cc2cccnc2)C(=O)CN2C(=O)COc3ccccc32)o1 | inconclusive: 12.9% |  | 
Cc1cc(C)c(S(=O)(=O)N2CCN(C(=O)N3CCOCC3)CC2)c(C)c1 |  | active: 3.66 µM | 
CCCc1ccc2oc(C(=O)N3CCCC3)c(C)c2c1 | inconclusive: -20.6% |  | 
Cc1ccc(NC(=O)/C=C\C(=O)O)c([N+](=O)[O-])c1 | inconclusive: 27.1% |  | 

Taken from the entries so far (3 entries):
Structure (SMILES) | lipid storage change, negative = inhibition | Potency | outcome
CC(=O)c1cn(CC(=O)Nc2c(C)cccc2C)c2ccccc12 |  | inconclusive: 16.4 µM [falling, single point] | 
O=C1CNC(=O)/C(=C/c2ccco2)N1 | inconclusive: -5.28% |  | 
O=C(Nc1ccc(N2CCCCC2)cc1)c1ccc([N+](=O)[O-])o1 |  | inconclusive: 18.4 µM [falling, partial curve, poor fit] | 

Next part:

Structure (SMILES) | lipid storage change, negative = inhibition | Potency | outcome
Cc1nc(S(=O)(=O)Cc2ccc(Cl)cc2)nc2c1CCC2 | inconclusive: -67.6% |  | 
C/C(=N/NC(=O)CNC(=O)Cc1ccc(Cl)cc1)c1ccco1 | inconclusive: 7.59% |  | 
COCC(C)n1c(COc2ccccc2F)nnc1SCc1c(C)noc1C (stereo not given) | inconclusive: -50.2% |  | 
COc1ccc(CNS(=O)(=O)CCNC(=O)c2ccc3c(c2)OCO3)cc1 | inconclusive: 1.21% |  | 
Nc1nnc(SCC(=O)Nc2cccc(Cl)c2)s1 |  | inconclusive: 0.231 µM [activator, full curve, poor fit] | 
COc1ccc(OCC(=O)N2CCN(c3nnc(-c4ccc(C)cc4)c4ccccc34)CC2)cc1 |  | inconclusive: 10.3 µM [falling, partial curve, poor fit] | 
CC(C)(C)c1nn(-c2ccccc2)c2[nH]c(=O)c(CNc3ccc4c(c3)OCCO4)cc12 | inconclusive: -0.458% |  | 
COc1cccc(C(C)NC(=O)Nc2cc(Cl)ccc2OC)c1 (stereo not given) | inconclusive: -3.47% |  | 
CC(=O)Nc1cccc(Oc2cnc3ccccc3n2)c1 | inconclusive: 13% |  | 
Cc1nc2ccc(NC(=O)CSc3nnc(C)s3)cc2[nH]1 | inconclusive: -16.9% |  | 
O=C(c1cccc(S(=O)(=O)Nc2ccc(F)cc2)c1)N1CCCC1 | inconclusive: 206% |  | 
CCn1nc(C)c(CN2CCC(n3nccc3NC(=O)c3ccccc3OC)CC2)c1C | inconclusive: 376% |  | 
COc1ccccc1C(=O)C1CCCN(C(=O)c2ccccc2C(C)=O)C1 (stereo not given) | inconclusive: 3.45% |  | 
Cc1cc(=O)n(C)c(=O)n1CCCCCCOc1cccc([N+](=O)[O-])c1 |  | inconclusive: 29.1 µM [falling, single point] | 
COc1ccccc1N/C(=N/c1nc(C)cc(C)n1)NC(C)=O | inconclusive: -9.76% |  | 
COc1cccc(C2=CC(c3ccccc3)n3nnnc3N2)c1 (stereo not given) | inconclusive: -9.24% |  | 
O=C(CCCN=C1NS(=O)(=O)c2ccccc21)OCC(=O)c1ccccc1 | inconclusive |  | 
Cc1ccc(NC(=O)C(C)OC(=O)Cn2[nH]c(=O)c3ccccc3c2=O)cc1 (stereo not given) | inconclusive: 25.5% |  | 
O=C(CN1CCc2cc3c(cc2C1)OCCCO3)Nc1cccc(Br)c1 |  | inconclusive: 29.1 µM [falling, partial curve, poor fit] | 
COc1cc(OC)cc(-c2cc3ccc(OC)cc3cn2)c1 | inconclusive: 1.43% |  | 
CSCCC(NC(=O)COc1ccccc1)C(=O)Nc1ccc(C)cc1 (stereo not given) |  | inconclusive: 1.64 µM [falling, single point] | 
O=C(C1=C(O)C(=O)N(CCCN2CCOCC2)C1c1ccccn1)c1cc2ccccc2o1 (stereo not given) |  | inconclusive: 1.03 µM [falling, partial curve] | 
COc1ccc(Nc2cc(C)nc3ccc(OC)cc23)cc1 | inconclusive: -17.2% |  | 
O=C(Cn1cnc2c(oc3ccccc32)c1=O)N1CCCC1 | inconclusive: 8.26% |  | 
Cc1cc(NS(=O)(=O)c2ccccc2)n(-c2ccccc2)n1 |  | inconclusive: 10.3 µM [rising, partial curve] | 

Structure (SMILES) | lipid storage change, negative = inhibition | Potency | outcome
CCC(=O)N1c2ccc(S(=O)(=O)NCc3ccco3)cc2CC1C (stereo not given) |  | inconclusive: 2.31 µM [falling, partial curve, poor fit] | 
Cc1[nH]c2ccccc2c1CN1CCc2ccccc2C1 | inconclusive: 4.01% |  | 
COc1ccc(-c2cc(-c3cccs3)c(C#N)c(SCC(=O)NCc3ccco3)n2)cc1 |  | inconclusive: 32.6 µM [activator, single point] | 
CCN(C(=O)COC(=O)/C(=C/c1ccccc1)n1nnnc1C)C1CCCCC1 |  | active: 7.31 µM | 
CCOC(=O)CSc1nnc(CSc2nc(C)cc(C)n2)n1Cc1ccco1 | inconclusive: -99.3% |  | 
COc1ccc(CNC(=O)CCNS(=O)(=O)c2ccc(NC(C)=O)cc2)cc1OC |  | inconclusive: 0.0046 µM [activator, full curve, poor fit] | 
CCn1cc([N+](=O)[O-])c(C(=O)N2N=C(c3ccccc3)CC2c2ccc([N+](=O)[O-])cc2)n1 (stereo not given) | inconclusive: 2.48% |  | 
O=C(NCc1nnc(SCC(=O)N2CCCCCC2)o1)c1ccco1 |  | inconclusive: 0.0065 µM [falling, full curve, poor fit] | 
Cc1ccc(S(=O)(=O)NNC(=O)c2ccccc2O)cc1 | inconclusive: -0.0759% |  | 
O=C(Cc1cccc2ccccc12)Nc1ccc(Br)cc1C(=O)O | inconclusive: 42.3% |  | 
O=C(CSc1nc2[nH]ncc2c(=O)[nH]1)Nc1ccc(F)cc1 | inconclusive: 31.6% [at 0.0737 µM] |  | 
CC(=O)c1ccc(N2CCN(C(=O)Nc3ccc(F)cc3F)CC2)cc1 | inactive: 1.35% |  | 
COc1cccc(-c2ccc3ncnc(NCc4ccc5c(c4)OCO5)c3c2)c1 | inconclusive: 23% |  | 
CC(=O)NC(CC(=O)Nc1ccc(S(=O)(=O)N2CCCC2)cc1)c1ccccc1 (stereo not given) |  | inconclusive: 4.11 µM [falling, single point] | 
CC(C)(C)c1cc[n+](-c2[nH]c(=O)sc2/C=N/N=C(\[O-])c2cccnc2)cc1 |  | inconclusive: 0.58 µM [activator, single point] | 
Cc1ccc(-c2nc(NCc3cccnc3)c3ccccc3n2)cc1 | inconclusive: 18.1% |  | 
O=C(NCCS(=O)(=O)N1CCN(c2ccccc2F)CC1)c1ccc2c(c1)OCO2 |  | inconclusive: 2.06 µM [activator, partial curve] | 
COc1ccc(-c2ccc(C(c3c(C)[nH][nH]c3=O)c3c(C)[nH][nH]c3=O)o2)c([N+](=O)[O-])c1 | inconclusive: -21.2% [at 9.22 µM] |  | 
CCOC(=O)N1CCN(CC(=O)Nc2c(C(=O)OC)[nH]c3ccccc23)CC1 |  | inconclusive: 6.51 µM [activator, partial curve] | 
CCC(C)(C)C1CCC(NC(=O)c2ccc(S(=O)(=O)N3CCOCC3)cc2)CC1 (stereo not given) | inconclusive: 20% |  | 
COc1cccc(-c2nnc(N)o2)c1 | inconclusive: 11.6% |  | 
COc1ccc(NC(=S)NCCC2=CCCCC2)cc1OC | inconclusive: -36.4% [at 0.00295 µM] |  | 
COc1ccc(C)cc1NC(=O)c1nnn(Cc2cc(C)ccc2C)c1N | inconclusive: -1.11% [at 9.22 µM] |  | 
Cc1cc(C)nc(NS(=O)(=O)c2ccc(NC(=O)c3ccc4c(c3)OCCO4)cc2)n1 | inconclusive: -33% [at 0.00295 µM] |  | 
CN(c1ccc(C(=O)N2CCOCC2)cc1)S(C)(=O)=O |  | active: 25.9 µM | 
